Among the data in article PMC4661529 are binding values, retold here.

Chains of the proteins cited; added tags and fusions are not shown. Lines headed by an entry give the natural chain unless they say otherwise; changes in a name come on top. Residues count along the entry.
UniProt P17302: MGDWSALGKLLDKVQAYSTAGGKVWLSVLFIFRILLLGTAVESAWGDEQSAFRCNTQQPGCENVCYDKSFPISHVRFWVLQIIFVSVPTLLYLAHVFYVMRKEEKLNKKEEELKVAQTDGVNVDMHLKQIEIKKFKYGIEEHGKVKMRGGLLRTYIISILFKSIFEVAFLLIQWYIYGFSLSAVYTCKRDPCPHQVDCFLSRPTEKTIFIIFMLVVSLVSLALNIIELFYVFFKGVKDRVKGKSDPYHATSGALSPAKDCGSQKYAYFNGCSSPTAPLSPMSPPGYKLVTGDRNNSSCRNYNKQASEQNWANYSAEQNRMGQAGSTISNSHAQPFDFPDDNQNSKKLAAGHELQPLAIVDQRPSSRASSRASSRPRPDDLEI
DeltaCx43-Tau: residues 147-382 of P17302
UniProt P67809: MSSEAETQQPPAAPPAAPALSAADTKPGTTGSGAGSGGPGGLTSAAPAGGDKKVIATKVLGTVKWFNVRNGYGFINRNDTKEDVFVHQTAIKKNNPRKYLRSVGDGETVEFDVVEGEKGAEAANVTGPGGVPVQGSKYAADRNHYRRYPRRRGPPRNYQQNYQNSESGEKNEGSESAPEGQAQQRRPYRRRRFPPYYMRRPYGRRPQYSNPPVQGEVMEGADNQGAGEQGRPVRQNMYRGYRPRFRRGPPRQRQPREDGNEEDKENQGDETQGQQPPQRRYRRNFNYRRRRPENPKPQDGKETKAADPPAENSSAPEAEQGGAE
UniProt Q13283: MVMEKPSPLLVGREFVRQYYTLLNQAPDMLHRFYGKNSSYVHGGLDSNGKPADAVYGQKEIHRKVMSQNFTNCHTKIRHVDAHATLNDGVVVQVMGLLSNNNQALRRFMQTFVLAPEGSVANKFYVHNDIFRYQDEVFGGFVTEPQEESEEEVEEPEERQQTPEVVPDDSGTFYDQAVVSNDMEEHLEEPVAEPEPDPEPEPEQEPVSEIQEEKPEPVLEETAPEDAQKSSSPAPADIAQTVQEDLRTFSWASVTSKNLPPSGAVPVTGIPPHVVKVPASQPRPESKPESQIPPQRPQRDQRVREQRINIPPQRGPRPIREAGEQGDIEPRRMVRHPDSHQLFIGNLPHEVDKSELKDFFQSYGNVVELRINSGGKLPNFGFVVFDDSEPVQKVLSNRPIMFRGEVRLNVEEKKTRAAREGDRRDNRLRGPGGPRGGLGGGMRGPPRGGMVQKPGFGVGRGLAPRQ

These are yes or no findings as the source states them, for the method shown. For part of these data: In cells and extracts the contact can be indirect. Some entries that bind do so weakly or less than the wild type. Tags and fused reporters may be left off the sequences shown.

One assay deals with DeltaCx43-Tau (human) (UniProt P17302). Nature of the assay: microtubule bench (prey brought to microtubules by a bait fused to Tau, fluorescence microscopy); NRK cells expressing DeltaCx43-Tau as bait and a GFP-labelled prey; fixed cells stained with anti-Tau antibody; line profiles.
For the next assay, the target named is T1, Lin28-GFP (human) (UniProt Q9H9Z2).
T1 sequence: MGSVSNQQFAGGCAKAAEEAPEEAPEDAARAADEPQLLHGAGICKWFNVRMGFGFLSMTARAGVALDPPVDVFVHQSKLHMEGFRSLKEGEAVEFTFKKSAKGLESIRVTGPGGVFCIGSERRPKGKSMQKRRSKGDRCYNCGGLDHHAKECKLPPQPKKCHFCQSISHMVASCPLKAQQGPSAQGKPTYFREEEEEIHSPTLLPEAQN
Briefly: co-IP; whole cell lysate of transfected HeLa cells (25 mM Tris, 150 mM NaCl, 1 mM EDTA, 1% Triton-X, pH 7.4); anti-GFP antibody and Dynabeads Protein G overnight at 4 °C; endogenous proteins detected by western blot.

The target of a further assay is YB-1-RFP-Tau (human) (UniProt P67809). Nature of the assay: microtubule bench (prey brought to microtubules by a bait fused to Tau, fluorescence microscopy); HeLa cells co-transfected with RFP-Tau-fused bait and GFP-labelled prey; fixed cells (methanol/PFA) and living cells (videomicroscopy), also during microtubule regrowth after nocodazole washout; colocalization scored by the spearman coefficient.

In the next assay the target is T2, Lin28-RFP-Tau (human) (UniProt Q9H9Z2).
T2 sequence: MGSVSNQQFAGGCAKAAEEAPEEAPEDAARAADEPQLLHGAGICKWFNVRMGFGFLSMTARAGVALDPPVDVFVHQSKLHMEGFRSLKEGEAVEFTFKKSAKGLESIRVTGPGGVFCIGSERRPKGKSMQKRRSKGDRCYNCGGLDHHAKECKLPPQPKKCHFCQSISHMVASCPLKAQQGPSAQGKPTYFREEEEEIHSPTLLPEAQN
Described as above.

The target of a further assay is G3BP1-RFP-Tau (human) (UniProt Q13283). The description is as above.

Cx43-GFP (from UniProt P17302 1-382): in the assay with DeltaCx43-Tau (human), the binding result is given as “binds”.
As to “endogenous YB-1 (from UniProt P67809 1-324)”, the binding entry in the assay with Lin28-GFP (human) is recorded as “binds”.

B1: Lin28-GFP (protein, UniProt Q9H9Z2 1-209)
chain: MGSVSNQQFAGGCAKAAEEAPEEAPEDAARAADEPQLLHGAGICKWFNVRMGFGFLSMTARAGVALDPPVDVFVHQSKLHMEGFRSLKEGEAVEFTFKKSAKGLESIRVTGPGGVFCIGSERRPKGKSMQKRRSKGDRCYNCGGLDHHAKECKLPPQPKKCHFCQSISHMVASCPLKAQQGPSAQGKPTYFREEEEEIHSPTLLPEAQN
In the case of B1, the binding entry with YB-1-RFP-Tau (human) is “binds”; in the assay with Lin28-RFP-Tau (human), “binds”; with G3BP1-RFP-Tau (human), “no binding”.

B2: CLDN10-GFP (protein, UniProt P78369 1-228)
chain: MASTASEIIAFMVSISGWVLVSSTLPTDYWKVSTIDGTVITTATYWANLWKACVTDSTGVSNCKDFPSMLALDGYIQACRGLMIAAVSLGFFGSIFALFGMKCTKVGGSDKAKAKIACLAGIVFILSGLCSMTGCSLYANKITTEFFDPLFVEQKYELGAALFIGWAGASLCIIGGVIFCFSISDNNKTPRYTYNGATSVMSSRTKYHGGEDFKTTNPSKQFDKNAYV
On to B2, for which the binding result with DeltaCx43-Tau (human) was “no binding”.
